Data as given in PubChem BioAssay AID1224830 (NIAID, 2016).
Assay: 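Genes whose knock-down alters the TNF-alpha reporter response to LPS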 (primary screen). Cells: human THP-1 monocytic leukaemia cells, TNF dual-luciferase reporter clone, PMA-differentiated to macrophage-like cells. Knock-down reagent: siRNA pool against human genes, 50 nM. Time to read-out: LPS for 4 h, given about 3 days after siRNA transfection. Treatment: bacterial LPS (TLR4 ligand), 10 ng/ml. Read-out: 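TNF firefly reporter luminescence divided by renilla, normalised to the plate median, then turned into a robust z-score for each replicate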. Scale: TNF reporter robust z-score: higher = stronger TNF reporter response to LPS. Rule for the call: 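Each well counts as active if its z-score is over 2.8 or under -1.5; controls are left without a call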.
The whole screen tested about 18,000 reagents; this is a random part of them. In the full data, about 2,900 (16%) are marked active. 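Calls are made per well; low scores hint the gene aids the LPS response, high scores that it dampens it.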 Entries without a mark were called inactive. Repeated entries: four replicate wells of each siRNA pool.

The opening 11 entries, ahead of the listing:
gene symbol,TNF reporter robust z-score
NIBAN2,-0.09
NIBAN2,-0.24
NIBAN2,1.01
NIBAN2,1.06
DPPA4,-0.04
DPPA4,0.84
DPPA4,0.87
DPPA4,0.97
HOMER1,0.77
HOMER1,1.28
HOMER1,0

Results, from the first entry:
gene symbol,TNF reporter robust z-score
NIBAN2,-0.09
NIBAN2,-0.24
NIBAN2,1.01
NIBAN2,1.06
DPPA4,-0.04
DPPA4,0.84
DPPA4,0.87
DPPA4,0.97
HOMER1,0.77
HOMER1,1.28
HOMER1,0
HOMER1,1.04
ZNF285,0.1
ZNF285,-0.27
ZNF285,0.49
ZNF285,-0.46
DEFA3,1.9
DEFA3,3.69 (active)
DEFA3,2.46
DEFA3,4.06 (active)
CRYL1,-1.06
CRYL1,0.43
CRYL1,0.51
CRYL1,0.44
RASGRP4,-0.35
RASGRP4,0.15
RASGRP4,-0.29
RASGRP4,-0.2
RBM15,1.59
RBM15,3.14 (active)
RBM15,4.96 (active)
RBM15,1.05
AGTRAP,0.81
AGTRAP,1.08
AGTRAP,3.59 (active)
NOCT,-0.96
NOCT,-0.94
NOCT,-0.88
NOCT,-0.77
NRK,-0.53
NRK,-1.04
NRK,0.58
NRK,-0.25
IFNA16,-1.36
IFNA16,-0.62
IFNA16,-0.36
IFNA16,-1.07
TBC1D19,2.1
TBC1D19,2.2
TBC1D19,1.06
TBC1D19,0.68
ZNF480,-0.17
ZNF480,-0.31
ZNF480,-0.2
ZNF480,0.44
PAQR5,-0.81
PAQR5,-0.22
PAQR5,0.03
PAQR5,-0.56
NUCLEOLIN,0.37
NUCLEOLIN,0.94
NUCLEOLIN,1.08
NUCLEOLIN,1.05
NRG1,0.39
NRG1,4.19 (active)
NRG1,3.23 (active)
NRG1,1.59
NCAN,0.57
NCAN,-0.56
NCAN,0.36
NCAN,1.26
GK,1.09
GK,1.13
GK,1.36
GK,1.51
MPPED1,0.27
MPPED1,0.39
MPPED1,-0.92
MPPED1,-0.4
SP4,-0.61
SP4,-0.1
SP4,-0.39
SP4,-0.11
DYRK1B,-1.17
DYRK1B,0.61
DYRK1B,-0.7
DYRK1B,-0.2
CKAP2L,-0.83
CKAP2L,-0.8
CKAP2L,-1.19
CKAP2L,-0.59
RGPD5,0.26
RGPD5,-0.41
RGPD5,0.19
RGPD5,0.5
PHC1,1.09
PHC1,0.05
PHC1,0.84
PHC1,2.1
RFPL1,2.06
RFPL1,-0.91
RFPL1,-0.96
RFPL1,1.53
CD2AP,0.67
CD2AP,-0.44
CD2AP,-0.28
CD2AP,0.2
LYRM1,-0.64
LYRM1,0.45
LYRM1,-0.05
LYRM1,-0.04
